The list shows a part of the results.
B1: il10ra_site1_normal_mot_HHH_b1_02464_000000069_0001_1_19_H_._HHH_b2_06057_0001_0000100006_0000001_0 (protein)
chain: SSSSDVEERVEELEEEAERAIERDDDELLSEILLELARLAFESGDERIDELAIELARLLKGSSSS
B2: il10ra_site1_normal_mot_HHH_b2_03220_af2_000000223_0001_23_40_H_._HHH_b1_07685_af2_0001_0000500052_0000001_0 (protein)
chain: SSSSTEEVWELLREALELLANGNPEEAQEVAEEALRIAEEAGSRALRHNVRFLLRAIELRSSSSS
B3: il10ra_site1_normal_mot_HHH_b1_00992_000000182_0001_23_40_H_._HHH_b1_04461_0001_0000600029_0000001_0_af2pred_0001 (protein)
chain: SSSSSSKRLELLLRLAKWLLEQGNPEVAREILRAAIELAEREGDPELLEQLEELLEEIENSSSSS
B4: il10ra_site1_normal_mot_HHH_b2_07569_000000265_0001_38_56_H_._HHH_b2_01469_af2_0001_0000300026_0000001_0 (protein)
chain: SSSSDEEEVKEKVEELLEEAKRISDPRERARALQEATHLAFELQDEELVQEVWKVAKELFSSSSS
B5: il10ra_site1_sap_7_mot_HHH_b2_07748_af2_000000237_0001_1_20_H_._HHH_b1_00585_af2_0001_0000100004_0000001_0_0001 (protein)
chain: SSSSDTLEHSVKFAERAVEIAEKQGDEERARFILRELLKHLERARNEELFEEVRRLLEELESSSS
B6: il10ra_site1_normal_mot_HHH_b2_03220_af2_000000223_0001_23_40_H_._HHH_b2_04284_0001_0000200013_0000001_0_af2pred_0001 (protein)
chain: SSSSSELREAFELLRKAIELLQKGNEEEAREVLERVKEIAEEANDPLLKRIAEAIERAVNSSSSS
B7: il10ra_site1_normal_mot_HHH_b1_05357_000000034_0001_23_39_H_._HHH_b2_06846_af2_0001_0000200002_0000001_0_af2pred_0001 (protein)
chain: SSSSSSSEEEVEELLEEAEKIEDRHEVAYLLVRAFALAYRNNDPELRELVEKVAKELLSSSSSSS
B8: il10ra_site1_sap_28_mot_HHH_b2_01776_000000118_0001_38_52_H_._HHH_b1_02180_af2_0001_0000400031_0000001_0_0001 (protein)
chain: SSSSSELAHIAVEVWELQKEGDEERIEELLERLEELLEKTGDPYVETVLTFAESVLRALRSSSSS
B9: il10ra_site1_normal_mot_HHH_b2_00612_000000251_0001_1_14_H_._HHH_b2_07853_0001_0000100004_0000001_0 (protein)
chain: SSSSSSVEIIKKLAEEILELVEEGNEEEAEKLTEEAKEIAEQLGDQLAAETVEYLLRLQLSSSSS
B10: il10ra_site1_normal_mot_HHH_b2_00984_000000042_0001_1_20_H_._ems_3hC_921_0001_0000100002_0000001_0 (protein)
chain: SSPEEALQLLFEATQLALENSDQELLQAVWRLIHKLVEARENNDEEKVEEVFELAREILEELQSS

Target: il10ra, Q13651
Test: yeast display titration

Apparent Kd, inactive:
B1 no binding seen
B2 no binding seen
B3 no binding seen
B4 no binding seen
B5 no binding seen
B6 no binding seen
B7 no binding seen
B8 no binding seen
B9 no binding seen
B10 no binding seen

From PMC10163288
